Laboratory results as given in publication PMC6148235, “A structural investigation of NRZ mediated apoptosis regulation in zebrafish” (Cell Death & Disease, 2018).
These are yes or no findings as the source states them, for the method shown. For part of these data: Binding can be weak; no strength is given.

Tests used:
[1] = target: NRZ (zebrafish pro-survival Bcl-2 protein), lacking the 28 C-terminal residues (zebrafish (Danio rerio)); assay: crystal structure; NRZ: zBad BH3 complex reconstituted at 1:1.25 molar ratio, crystallised by sitting drop at 20 °C in 0.2 M sodium fluoride, 0.1 M Bis-Tris propane pH 6.5, 20% PEG 3350; space group P6_(3); both purified
[2] = target: NRZ (zebrafish pro-survival Bcl-2 protein), lacking the 28 C-terminal residues (zebrafish (Danio rerio)); assay: ITC; MicroCal iTC200, 25 °C; NRZ (wt, D79A or R86A) at 30 μM in 25 mM HEPES pH 7.5, 150 mM NaCl, 2 mM BME; BH3 peptide at 300 μM titrated in 19 injections of 2.0 μl; triplicate; both purified

Binder | binding [1] | binding [2]
ALWAAKKYGQQLRRMSDEFDKGQMKR [zBad BH3 motif peptide] | binds | 
AQSVETLIGQKLQLIGDQFYQEHIMH [zBmf BH3 motif peptide] |  | no binding (tested: 300 μM peptide titrated into 30 μM NRZ)
DGGTMENLSRRLKVTSNLFDIMSGQT [zBeclin BH3 motif peptide] |  | no binding (tested: 300 μM peptide titrated into 30 μM NRZ)
